Experimental data published in PMC2572998, “Structures of the Signal Recognition Particle Receptor from the Archaeon Pyrococcus furiosus: Implications for the Targeting Step at the Membrane” (PLoS ONE, 2008).
These are yes or no findings as the source states them, for the method shown.

B1: Pyrococcus furiosus FtsY (signal recognition particle receptor) (protein, UniProt Q8U051 1-322)
chain: MFGKLREKLKSFVKRVEEEVEKEEEEVEKKGLLDRILTVEIKEKDVDKALDELEIDLLEADVALEVVDALREKIKQKLVGKKVRIGTDKGKIIEEAVKEAVSEILETSRRIDLIEEIRKAEKPYVIMFVGFNGSGKTTTIAKLANWLKNHGFSVVIAASDTFRAGAIEQLEEHAKRIGVKVIKHSYGADPAAVAYDAIQHAKARGIDVVLIDTAGRSETNRNLMDEMKKIARVTKPNLVIFVGDALAGNAIVEQARQFNEAVKIDGIILTKLDADARGGAALSISYVIDAPILFVGVGQGYDDLRPFEKEWFLERIFGEENA
B2: Thermus aquaticus FtsY (signal recognition particle receptor) (protein, UniProt P83749 1-304)
chain: MGFFDRLKAGLAKTRERLLKAIPWGGNLEEVLEELEMALLAADVGLSATEEILQEVRASGRKDLKEAVKEKLVGMLEPDERRATLRKLGFNPQKPKPVEPKGRVVLVVGVNGVGKTTTIAKLGRYYQNLGKKVMFCAGDTFRAAGGTQLSEWGKRLSIPVIQGPEGTDPAALAYDAVQAMKARGYDLLFVDTAGRLHTKHNLMEELKKVKRAIAKADPEEPKEVWLVLDAVTGQNGLEQAKKFHEAVGLTGVIVTKLDGTAKGGVLIPIVRTLKVPIKFVGVGEGPDDLQPFDPEAFVEALLED

How the values were obtained:
[1] = target: Pyrococcus furiosus FtsY (signal recognition particle receptor) (Pyrococcus furiosus) (UniProt Q8U051); assay: SAXS; Guinier analysis of the concentration dependence, 2.5 to 25 mg/ml, 15°C, 20 mM Hepes pH 7.5, 250 mM KCl, 0.5 mM EDTA, 5 mM MgCl2, 10 mM DTT; both purified
[2] = target: Pyrococcus furiosus FtsY (signal recognition particle receptor) (Pyrococcus furiosus) (UniProt Q8U051); assay: AUC; sedimentation equilibrium, 3 to 9 concentrations at 8500, 12 000, 17 000 and 20 000 rpm, 20°C, 20 mM Hepes pH 7.5, 250 mM KCl, 0.5 mM EDTA, 5 mM MgCl2; single component model; both purified
[3] = target: Pyrococcus furiosus FtsY (signal recognition particle receptor) (Pyrococcus furiosus) (UniProt Q8U051); assay: AUC; sedimentation velocity, 50 000 rpm, 20°C, 20 mM Hepes pH 7.5, 250 mM KCl, 0.5 mM EDTA, 5 mM MgCl2; 0.35-3.5 mg/ml (10 to 100 µM); g(s*) time-derivative analysis; both purified
[4] = target: Thermus aquaticus FtsY (signal recognition particle receptor) (Thermus aquaticus) (UniProt P83749); assay: SAXS; Guinier analysis of the concentration dependence, 2.5 to 25 mg/ml, 15°C, 20 mM Hepes pH 7.5, 250 mM KCl, 0.5 mM EDTA, 5 mM MgCl2, 10 mM DTT; both purified
[5] = target: Thermus aquaticus FtsY (signal recognition particle receptor) (Thermus aquaticus) (UniProt P83749); assay: AUC; sedimentation equilibrium, 3 to 9 concentrations at 8500, 12 000, 17 000 and 20 000 rpm, 20°C, 20 mM Hepes pH 7.5, 250 mM KCl, 0.5 mM EDTA, 5 mM MgCl2; single component model; both purified
[6] = target: Thermus aquaticus FtsY (signal recognition particle receptor) (Thermus aquaticus) (UniProt P83749); assay: AUC; sedimentation velocity, 50 000 rpm, 20°C, 20 mM Hepes pH 7.5, 250 mM KCl, 0.5 mM EDTA, 5 mM MgCl2; 0.35-3.5 mg/ml (10 to 100 µM); g(s*) time-derivative analysis; both purified

Binder	binding [1]	binding [2]	binding [3]	binding [4]	binding [5]	binding [6]
B1	no binding (tested: 2.5 to 25 mg. ml^−1)	no binding (tested: 10 to 100 µM)	no binding (tested: 10 to 100 µM)	–	–	–
B2	–	–	–	no binding (tested: 2.5 to 25 mg. ml^−1)	no binding (tested: 10 to 100 µM)	no binding (tested: 10 to 100 µM)
